# In PubChem BioAssay AID588441 (Southern Research Specialized Biocontainment Screening …, 2011):
# All entries are inconclusive by the source's own rule. Clear calls are listed elsewhere. No rule for the calls is given here.
# Assay: HepG2 cell cytotoxicity, cytotoxicity control, set 5 (AID 588441)
# Details: at 50 µM (top of the series)
smiles,measurement,value
O=C(c1ccc(CNc2c(N3CCCC3)c(=O)c2=O)cc1)N1CC=C(c2ccccc2)CC1,viability,inconclusive: 82.6%
